No constants are given. Whether binding was seen depends on the method and setting. Binding seen in cells or lysates may run through a third protein. A result given as binding can be weak or reduced; the word gives no strength.

The test addresses T1, CD99 (human (endogenous in LAP-35)) (UniProt P14209).
T1 sequence: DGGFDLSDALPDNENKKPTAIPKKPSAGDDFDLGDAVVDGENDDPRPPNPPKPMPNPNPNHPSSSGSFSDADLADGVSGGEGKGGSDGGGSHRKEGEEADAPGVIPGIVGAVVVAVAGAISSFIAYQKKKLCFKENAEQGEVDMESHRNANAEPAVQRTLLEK
Briefly: co-IP; endogenous IGF-1R, RAS and CD99 in LAP-35 cells, before and after treatment with 0662mAb; details only in Supplementary Materials and Methods.

As for RAS (human (endogenous in LAP-35)), the binding entry is on record as “binds”.

Consider “insulin-like growth factor receptor 1 (IGF-1R) (human (endogenous in LAP-35))”, for which the binding result is on record as “binds”.

For the origin of these results see article PMC5346761.
